Results deposited as PubChem BioAssay AID1224828 (NIAID, 2016)
Aim: 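Find genes required for NF-kappaB p65 moving into the nucleus after LPS in mouse macrophages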 (primary screen). Cells: mouse RAW264.7 G9 macrophage reporter cells (GFP-p65, Tnf promoter-mCherry). Reagent: siRNA pool against mouse genes, 100 nM. Time to read-out: 2 days siRNA transfection, then 40 min LPS before fixation. Conditions: LPS (Salmonella minnesota R595) at 10 ng/ml. Detection: 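Imaged p65 nuclear translocation ratio, normalised to the plate median, converted to robust z-scores and averaged across two replicates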. Scale: p65 translocation robust z-score: higher = more nuclear NF-kappaB p65 after LPS than the plate median; nuclear/cytoplasmic p65 ratio: higher = more nuclear NF-kappaB p65. Rule for the call: 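Active if robust z is above 3.3 (negative regulators) or below -1.56, the Tlr4 control median (positive regulators); activity score 50 or more; control wells not called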. Calls: active = hit (p65 shift raised or lowered); inactive = no clear change.
The deposit covers about 17,000 reagents; below is a random part of them. Over the whole deposit, 762 (4.5%) are marked active. 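Active calls include both raised and lowered p65 entry, mostly lowered; wells with fewer than 50 cells lack a z-score.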 Raw values are not corrected between plates. A number with no mark means an inactive call. Reagents against one gene are numbered here. No sequences are given here.

no.	target gene	reagent	p65 translocation robust z-score	nuclear/cytoplasmic p65 ratio, rep 1	nuclear/cytoplasmic p65 ratio, rep 2	low cell count flag
1	Nono (non-POU-domain-containing, octamer binding protein)	1	-0.07	1.71	1.51	enough cells to score
2	Kctd13 (potassium channel tetramerisation domain containing 13)	1	1.13	1.61	1.67	enough cells to score
3	Cyp39a1 (cytochrome P450, family 39, subfamily a, polypeptide 1)	1	0.47	1.65	1.85	enough cells to score
4	Rprd1a (regulation of nuclear pre-mRNA domain containing 1A)	1	-0.55	1.54	1.32	enough cells to score
5	Wnt8a (WNT family member 8A)	1	-0.49	1.45	1.43	enough cells to score
6	Asah1 (N-acylsphingosine amidohydrolase 1)	1	0.9	1.84	1.66	enough cells to score
7	Aurkaip1 (aurora kinase A interacting protein 1)	1	0.67	1.6	1.82	enough cells to score
8	Rbl2 (RB transcriptional corepressor like 2)	1		1.6	1.53	fewer than 50 cells per well; well left out of scoring
9	Cxcr5 (C-X-C motif chemokine receptor 5)	1	-0.92	1.37	1.39	enough cells to score
10	Vmn2r122 (vomeronasal 2, receptor, 122)	1	-1.23	1.39	1.11	enough cells to score
11	Vmn2r122 (vomeronasal 2, receptor, 122)	2	-0.26	1.4	1.2	enough cells to score
12	Ap3b1 (adaptor-related protein complex 3, beta 1 subunit)	1	-0.31	1.57	1.58	enough cells to score
13	Ttpa (tocopherol (alpha) transfer protein)	1	-0.03	1.48	1.52	enough cells to score
14	Rab5b (RAB5B, member RAS oncogene family)	1	2.32	1.79	1.89	enough cells to score
15	Odc1 (ornithine decarboxylase, structural 1)	1	-0.48	1.38	1.36	enough cells to score
16	Osbpl6 (oxysterol binding protein-like 6)	1	0.61	1.43	1.31	enough cells to score
17	Dtl (denticleless E3 ubiquitin protein ligase)	1	0.94	1.74	1.77	enough cells to score
18	Maea (macrophage erythroblast attacher)	1	0.97	1.83	1.72	enough cells to score
19	Sem1 (SEM1, 26S proteasome complex subunit)	1	-0.84	1.43	1.43	enough cells to score
20	Slc16a1	1	0.67	1.55	1.68	enough cells to score
21	Ada (adenosine deaminase)	1	-0.12	1.66	1.55	enough cells to score
22	Yipf6 (Yip1 domain family, member 6)	1	0.15	1.4	1.55	enough cells to score
23	Rps6 (ribosomal protein S6)	1		1.47	1.13	fewer than 50 cells per well; well left out of scoring
24	Celsr3 (cadherin, EGF LAG seven-pass G-type receptor 3)	1		1.41	1.62	fewer than 50 cells per well; well left out of scoring
25	Capn12 (calpain 12)	1	0.43	1.62	1.89	enough cells to score
26	Celsr1 (cadherin, EGF LAG seven-pass G-type receptor 1)	1		1.44	1.63	fewer than 50 cells per well; well left out of scoring
27	Midn (midnolin)	1	-0.4	1.65	1.49	enough cells to score
28	Syt1 (synaptotagmin I)	1	1.25	1.61	1.85	enough cells to score
29	Tek (TEK receptor tyrosine kinase)	1	2.32	2.02	1.71	enough cells to score
30	Ndufb11 (NADH:ubiquinone oxidoreductase subunit B11)	1	0.44	1.83	1.55	enough cells to score
31	Dnali1 (dynein, axonemal, light intermediate polypeptide 1)	1		1.57	1.31	fewer than 50 cells per well; well left out of scoring
32	Maco1 (macoilin 1)	1	-0.73	1.46	1.55	enough cells to score
33	Myo9a (myosin IXa)	1		0.954	1.62	fewer than 50 cells per well; well left out of scoring
34	H2-Q7 (histocompatibility 2, Q region locus 7)	1	-0.64	1.35	1.3	enough cells to score
35	Ppard (peroxisome proliferator activator receptor delta)	1	-0.93	1.35	1.31	enough cells to score
36	Pknox2 (Pbx/knotted 1 homeobox 2)	1	-0.05	1.47	1.13	enough cells to score
37	Rbms1 (RNA binding motif, single stranded interacting protein 1)	1	1.91	1.79	1.78	enough cells to score
38	Zfp870 (zinc finger protein 870)	1	0.81	1.68	1.81	enough cells to score
39	Fbn1 (fibrillin 1)	1	0.49	1.57	1.4	enough cells to score
40	Kcna1	1	-0.4	1.44	1.31	enough cells to score
41	Ist1 (IST1 factor associated with ESCRT-III)	1		1.08	1.27	fewer than 50 cells per well; well left out of scoring
42	Ccdc70 (coiled-coil domain containing 70)	1		2.07	1.74	fewer than 50 cells per well; well left out of scoring
43	Tmprss3 (transmembrane protease, serine 3)	1	1.03	1.68	1.65	enough cells to score
44	Pkdrej (polycystin (PKD) family receptor for egg jelly)	1	-0.4	1.43	1.37	enough cells to score
45	Myh1 (myosin, heavy polypeptide 1, skeletal muscle, adult)	1	1.35	1.69	1.45	enough cells to score
46	Eaf2 (ELL associated factor 2)	1	0.64	1.65	1.36	enough cells to score
47	Rem1 (rad and gem related GTP binding protein 1)	1	0.05	1.65	1.4	enough cells to score
48	G3bp1 (G3BP stress granule assembly factor 1)	1	0.17	1.48	1.41	enough cells to score
49	Ppp1r35 (protein phosphatase 1, regulatory subunit 35)	1		1.12	0.78	fewer than 50 cells per well; well left out of scoring
50	Ccnb2 (cyclin B2)	1	0.4	1.58	1.43	enough cells to score
51	Slc27a4	1	1.92	1.57	1.48	enough cells to score
52	Macrod1 (mono-ADP ribosylhydrolase 1)	1	-2.48 (active)	1.25	1.16	enough cells to score
53	Ear4 (eosinophil-associated, ribonuclease A family, member 4)	1		1.28	1.04	fewer than 50 cells per well; well left out of scoring
54	Lrrc1 (leucine rich repeat containing 1)	1	-1.62 (active)	1.51	1.27	enough cells to score
55	Cmtm7 (CKLF-like MARVEL transmembrane domain containing 7)	1	-0.63	1.39	1.29	enough cells to score
56	Cck (cholecystokinin)	1	-1.6 (active)	1.27	1.15	enough cells to score
57	Uggt2 (UDP-glucose glycoprotein glucosyltransferase 2)	1	-0.11	1.28	1.51	enough cells to score
58	Banf1 (BAF nuclear assembly factor 1)	1	-0.4	1.37	1.78	enough cells to score
59	Aldh2 (aldehyde dehydrogenase 2, mitochondrial)	1	0.59	1.63	1.78	enough cells to score

Ordered by “nuclear/cytoplasmic p65 ratio, rep 1” (high to low): 4 of the entries above.
target gene	reagent	p65 translocation robust z-score	nuclear/cytoplasmic p65 ratio, rep 1	nuclear/cytoplasmic p65 ratio, rep 2	low cell count flag
Ada (adenosine deaminase)	1	-0.12	1.66	1.55	enough cells to score
Rps6 (ribosomal protein S6)	1		1.47	1.13	fewer than 50 cells per well; well left out of scoring
Celsr3 (cadherin, EGF LAG seven-pass G-type receptor 3)	1		1.41	1.62	fewer than 50 cells per well; well left out of scoring
Yipf6 (Yip1 domain family, member 6)	1	0.15	1.4	1.55	enough cells to score
